Experimental data: patent publication US20250346630A1, “Engineering Peptides Using Peptide Epitope Linker Evolution” (AGENCY FOR SCIENCE, TECHNOLOGY AND RESEARCH, priority 2022, published 2025)
No constants are given. Whether binding was seen depends on the method and setting.

Tests used:
[1] = target: MDM2; test: M13 C7C phage selection on the control protein, NGS abundance heat map [CONT.) C]
[2] = target: MDM2; test: M13 linear 12mer phage selection on the control protein, NGS abundance heat map [CONT.) D]
[3] = target: KRas; test: as above

| Binder | binding [1] | binding [2] | binding [3] |
| --- | --- | --- | --- |
| CETGFFTGC (two flanking Cys of the disulphide constrained C7C library) | no binding | – | – |
| CEMGYFGNC (two flanking Cys of the disulphide constrained C7C library) | no binding | – | – |
| AQSYTRMELLRL | – | no binding | no binding |
| HYSRTDLLAYRW | – | – | no binding |
| SGIQQRMIVTWP | – | – | no binding |
| KLWSIPTNFLLP | – | – | no binding |
| VEGQNLEALVTD | – | no binding | no binding |
| TISYDRSTLFLF | – | no binding | no binding |
| DSAKERLAVSGT | – | no binding | no binding |
| LPRMMSDGEAGD | – | no binding | no binding |
| CELGYYNDC (two flanking Cys of the disulphide constrained C7C library) | no binding | – | – |
| YLMQTNQWQIAS | – | no binding | no binding |
| CETGFFLKC (two flanking Cys of the disulphide constrained C7C library) | no binding | – | – |
| CELGFYRLC (two flanking Cys of the disulphide constrained C7C library) | no binding | – | – |
| CETGFFLRC (two flanking Cys of the disulphide constrained C7C library) | no binding | – | – |
| CETGYFSQC (two flanking Cys of the disulphide constrained C7C library) | no binding | – | – |
| CIHSPTSLC (two flanking Cys of the disulphide constrained C7C library) | no binding | – | – |
| CETGFYKTC (two flanking Cys of the disulphide constrained C7C library) | no binding | – | – |
